Measurements from patent US8536407B2, “Heat resistant plants and plant tissues comprising a variant adenosine diphosphate glucose pyrophosphorylase small subunit protein and methods of use thereof” (University of Florida Research Foundation, Inc., priority 2008, dated 2013).

B1: BT2-TI: BT2 small subunit with change of amino acid 462 from threonine to isoleucine (protein)
chain: MDMALASKASPPPWNATAAEQPIPKRDKAAANDSTYLNPQAHDSVLGIILGGGAGTRLYPLTKKRAKPAVPLGANYRLIDIPVSNCLNSNISKIYVLTQFNSASLNRHLSRAYGSNIGGYKNEGFVEVLAAQQSPDNPNWFQGTADAVRQYLWLFEEHNVMEFLILAGDHLYRMDYEKFIQAHRETNADITVAALPMDEKRATAFGLMKIDEEGRIIEFAEKPKGEQLKAMMVDTTILGLDDVRAKEMPYIASMGIYVFSKDVMLQLLREQFPEANDFGSEVIPGATSIGKRVQAYLYDGYWEDIGTIAAFYNANLGITKKPIPDFSFYDRFAPIYTQPRHLPPSKVLDADVTDSVIGEGCVIKNCKINHSVVGLRSCISEGAIIEDSLLMGADYYETEADKKLLAEKGGIPIGIGKNSCIRRAIIDKNARIGDNVKILNADNVQEAAMETDGYFIKGGIVIVIKDALLPSGTVI
modifications: zea mays BT2 protein
notes: BT2 small subunit with change of amino acid 462 from threonine to isoleucine
B2: MP-TI: MP mosaic small subunit with the amino acid change of TI introduced (protein)
chain: MDMALASKASPPPWNATAAEQPIPKRDKAAANDSTYLNPQAHDSVLGIILGGGAGTRLYPLTKKRAKPAVPLGANYRLIDIPVSNCLNSNISKIYVLTQFNSASLNRHLSRAYGSNIGGYKNEGFVEVLAAQQSPDNPNWFQGTADAVRQYLWLFEEHNVMEFLILAGDHLYRMDYEKFIQAHRETNADITVAALPMDEKRATAFGLMKIDEEGRIIEFAEKPQGEQLQAMKVDTTILGLDDKRAKEMPFIASMGIYVISKDVMLNLLRDKFPGANDFGSEVIPGATSLGMRVQAYLYDGYWEDIGTIEAFYNANLGITKKPVPDFSFYDRSAPIYTQPRYLPPSKMLDADVTDSVIGEGCVIKNCKIHHSVVGLRSCISEGAIIEDSLLMGADYYETDADRKLLAAKGSVPIGIGKNCHIKRAIIDKNARIGDNVKIINKDNVQEAARETDGYFIKSGIVIVIKDALIPSGIII
modifications: zea mays MP-TI protein
notes: MP mosaic small subunit with the amino acid change of TI introduced

Test system: BT2
Assay: Dot blot of crude extracts from E. coli cells, monoclonal antibody against BT2
Parameters: species or system maize
Conditions: E. coli cells expressing the subunit with SH2

Molecule	amount of small subunit protein in crude extracts (dot blot)
B1	found in higher amounts in E. coli
B2	greater amounts of the MP-TI protein relative to BT2
